The results are deposited in PubChem (AID1224904; Broad Institute, 2016).

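293T-iDUX4 cells carrying a ZSCAN4-driven Gaussia luciferase and a tet-on Italica luciferase control; the gap between the two luminescence signals is read after 24 h. The test concentration is not given here. Percent difference between the Gaussia and Italica channels; more negative values mean more selective suppression of the DUX4 reporter, and higher values mean less activity.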

Values are in %. How 0% and 100% were set is not given here. Common to all entries: measured here: selective DUX4 reporter inhibition. Part of the compounds only, not a random draw; the main read-out is not listed here.

| compound | Gaussia minus Italica difference (%) |
|---|---|
| `CCC(=O)N1CC2(C1)CN(Cc1cc(F)ccc1F)[C@H](CO)c1[nH]c3cc(OC)ccc3c12` | -4.167 |
| `N#Cc1cccc(-c2ccc([C@H]3[C@H]4CN(Cc5ccccc5F)CCCCN4[C@H]3CO)cc2)c1` | -13.86 |
| `C[C@@H]1CN([C@H](C)CO)C(=O)CCCn2nncc2CO[C@@H]1CN(C)Cc1ccc(Oc2ccccc2)cc1` | -5.704 |
| `O=C(C[C@@H]1CC[C@@H]2[C@H](COC[C@H](O)CN2S(=O)(=O)c2cccc(Cl)c2)O1)Nc1ccc(-c2ccccc2)cc1` | -5.432 |
| `COc1ccc(C#Cc2ccc([C@H]3[C@@H](CO)N4CCCCN(C(=O)Cc5cccnc5)C[C@@H]34)cc2)cc1` | -8.472 |
| `C[C@H]1CN([C@@H](C)CO)C(=O)c2c(c3ccccc3n2C)-c2ccccc2CO[C@@H]1CN(C)C(=O)c1cc(Cl)cc(Cl)c1` | -3.205 |
| `O=C(C[C@H]1C[C@@H]2c3cc(NC(=O)Nc4ccccc4F)ccc3O[C@@H]2[C@@H](CO)O1)NCc1ccc(Oc2ccccc2)cc1` | -6.248 |
| `CC(C)COC(=O)N(C)C[C@@H]1OCc2ccccc2-c2c(n(C)c3ccccc23)C(=O)N([C@H](C)CO)C[C@@H]1C` | 4.117 |
| `COc1ccc(C#Cc2ccc([C@@H]3[C@@H](CO)N4CCCCN(C(=O)Nc5ccccc5)C[C@@H]34)cc2)cc1` | -16.23 |
| `C[C@H](CO)N1C[C@H](C)[C@H](CN(C)Cc2ccc3c(c2)OCO3)OCc2ccccc2-c2c(n(C)c3ccccc23)C1=O` | -12.17 |
| `O=C(Nc1ccccc1F)N1CCCCN2[C@@H](CO)[C@@H](c3ccc(C#Cc4cccnc4)cc3)[C@@H]2C1` | -22.46 |
| `COc1cccc(C#Cc2ccc([C@H]3[C@H]4CN(C(=O)c5ccccc5)CC(=O)N4[C@H]3CO)cc2)c1` | -17.4 |
| `N#C[C@H]1[C@H](c2ccccc2-c2ccccc2)[C@@H](CO)N1C(=O)NC1CCCC1` | -14.21 |
| `CS(=O)(=O)N1CC(=O)N2[C@H](CO)[C@@H](c3ccc(C#CCc4ccccc4)cc3)[C@@H]2C1` | -18.96 |
| `C[C@@H]1CN([C@@H](C)CO)C(=O)CCCn2nncc2CO[C@H]1CN(C)Cc1ccc(-c2ccccc2)cc1` | -6.872 |
| `COc1ccc2c3c(n(C)c2c1)[C@@H](CO)N(C(=O)C1CCCCC1)CC31CCN(C(=O)Nc2cccc(F)c2)CC1` | 0.03113 |
| `C[C@H]1CN([C@@H](C)CO)C(=O)CCCn2nncc2CO[C@@H]1CN(C)Cc1ccc(Oc2ccccc2)cc1` | -7.839 |
| `C[C@H](C(=O)N(C)C[C@H]1OCc2ccccc2-c2c(n(C)c3ccccc23)C(=O)N([C@@H](C)CO)C[C@H]1C)c1ccccc1` | -21.53 |
| `CO[C@H]1CN(C)C(=O)c2cc(NC(=O)c3ccc(Oc4ccccc4)cc3)ccc2OC[C@H](C)NC[C@@H]1C` | 32.64 |
| `O=C(c1ccc2c(c1)OCO2)N1CC(=O)N2[C@H](CO)[C@H](c3ccc(C#Cc4ccccc4)cc3)[C@@H]2C1` | -0.4896 |
| `O=C(c1ccccc1F)N1CC[C@@H]2[C@H]1c1cc(C#Cc3ccc(F)cc3)ccc1N[C@@H]2CO` | -7.132 |
| `CCCNC(=O)N1[C@H](CO)[C@H](c2ccccc2-c2ccc(F)cc2)[C@@H]1C#N` | -1.099 |
| `COc1cccc(-c2ccc3c(c2)[C@@H]2[C@@H](CCN2C(=O)c2ccccc2F)[C@H](CO)N3C)c1` | 25.39 |
| `Cc1cccc(-c2ccc([C@@H]3[C@@H](CO)N4C(=O)CN(C(=O)c5ccc6c(c5)OCO6)C[C@H]34)cc2)c1` | 1.259 |
| `COc1ccc(S(=O)(=O)N2C[C@@H](O)COC[C@@H]3O[C@@H](CC(=O)N[C@@H]4CCN(Cc5ccccc5)C4)CC[C@H]32)cc1` | -12.85 |
| `COc1cccc(-c2ccc3c(c2)[C@H]2[C@H](CCN2S(=O)(=O)c2ccc(F)cc2)[C@@H](CO)N3C)c1` | 22.47 |
| `CCCC#Cc1ccc([C@@H]2[C@H]3CN(C(=O)c4ccc5c(c4)OCO5)CCCCN3[C@H]2CO)cc1` | -4.531 |
| `O=S(=O)(c1ccc(F)cc1)N1CCCCN2[C@H](CO)[C@@H](c3ccc(C#CC4CC4)cc3)[C@H]2C1` | -21.85 |
| `CCCNC(=O)N1CC(=O)N2[C@H](CO)[C@@H](c3ccc(C#CCC4CCCC4)cc3)[C@H]2C1` | 8.211 |
| `Fc1cccc(CN2C[C@@H]3N[C@H](C2)C3c2ccc(/C=C/c3ccccc3)cc2)c1` (some centres not stated) | -1.869 |
| `N#C[C@H]1[C@H](c2ccccc2-c2ccccc2)[C@H](CO)N1C(=O)NC1CCCC1` | -1.02 |
| `C[C@@H]1CN([C@H](C)CO)C(=O)c2c(c3ccccc3n2C)-c2ccccc2CO[C@H]1CN(C)S(=O)(=O)c1ccsc1` | -11.02 |
| `O=C(C1CCC1)N1CC[C@H]2[C@H](CO)Nc3ccc(-c4cccc(F)c4)cc3[C@H]21` | -6.164 |
| `C[C@H]1CN([C@@H](C)CO)C(=O)c2c(c3ccccc3n2C)-c2ccccc2CO[C@H]1CN(C)C(=O)c1ccc(F)cc1` | -5.796 |
| `O=C(C[C@@H]1CC[C@H](NC(=O)Nc2ccc(C(F)(F)F)cc2)[C@H](CO)O1)NCc1cccc(F)c1` | -18.58 |
| `CN1[C@@H]2c3ccc(/C=C/c4ccccc4)c(=O)n3C[C@@H]2[C@@H](CO)[C@@H]1C(=O)NC1CCCC1` | -5.601 |
| `COCC(=O)N1CC(=O)N2[C@H](CO)[C@@H](c3ccc(C#CCc4ccccc4)cc3)[C@@H]2C1` | -17.56 |
| `O=C(Nc1ccc(-c2ccccc2)cc1)[C@H]1[C@H](CO)[C@H]2Cn3c(cccc3=O)[C@H]2N1CC1CCCC1` | 26.84 |
| `O=C(C[C@@H]1C[C@@H]2c3cc(NC(=O)c4ccc5c(c4)OCO5)ccc3O[C@@H]2[C@@H](CO)O1)NCc1cccc(F)c1` | -1.513 |
| `CN1C(=O)c2cc(NC(=O)c3cccc(F)c3)ccc2OC[C@@H]2O[C@H](CC(=O)N3CCc4ccccc4C3)CC[C@H]21` | -7.328 |
| `CN(C)C(=O)c1cccc(-c2ccc3c(c2)[C@H]2[C@H](CCN2C(=O)C2CCC2)[C@H](CO)N3)c1` | -5.889 |
| `Cc1cccc(-c2ccc([C@@H]3[C@H](CO)N4CCCCN(Cc5ccncc5)C[C@@H]34)cc2)c1` | 0.1949 |
| `C[C@H](NC(=O)N(C)C[C@@H]1OCc2ccccc2-c2c(n(C)c3ccccc23)C(=O)N([C@H](C)CO)C[C@@H]1C)c1ccccc1` | 14.13 |
| `COc1cccc(S(=O)(=O)N2CCCCN3[C@H](CO)[C@@H](c4ccc(C#CC5CC5)cc4)[C@H]3C2)c1` | -9.796 |
| `OC[C@@H]1Nc2ccc(-c3cccc(F)c3)cc2[C@H]2[C@@H]1CCN2Cc1ccc(F)cc1` | -20.94 |
| `OC[C@@H]1[C@@H](c2ccccc2)C2(CN(Cc3cccc(F)c3)C2)N1CC1CCCC1` | -12.35 |
| `Cc1ccc(S(=O)(=O)N2C[C@@H]3N[C@H](C2)C3c2ccc(-c3cccc(C#N)c3)cc2)cc1` (some centres not stated) | 2.261 |
| `COc1cccc(S(=O)(=O)N2C[C@@H]3N[C@H](C2)C3c2ccc(-c3ccccc3C)cc2)c1` (some centres not stated) | -13.98 |
| `O=C(c1cccc(F)c1)N1CC[C@@H]2[C@@H](CO)Nc3ccc(-c4cccc(F)c4)cc3[C@@H]21` | -7.043 |
| `CCc1csc(N2[C@@H](C#N)[C@@H](c3ccccc3-c3cccc(F)c3)[C@@H]2CO)n1` | -6.511 |
| `COCC#Cc1ccc([C@H]2[C@@H](CO)N3CCCCN(S(=O)(=O)c4ccccc4F)C[C@@H]23)cc1` | -13.1 |
| `COCC(=O)N1CCCCN2[C@H](C1)[C@@H](c1ccc(C#Cc3ccccc3)cc1)[C@@H]2CO` | -10.28 |
| `CO[C@H]1CN(C)C(=O)c2cc(NC(=O)c3ccc4c(c3)OCO4)ccc2OC[C@H](C)N(CCC(F)(F)F)C[C@@H]1C` | -10.93 |
| `C[C@H](C(=O)N(C)C[C@H]1OCc2ccccc2-c2c(n(C)c3ccccc23)C(=O)N([C@H](C)CO)C[C@H]1C)c1ccccc1` | -4.686 |

Once more, the final 6:

{"compound": "O=C(c1cccc(F)c1)N1CC[C@@H]2[C@@H](CO)Nc3ccc(-c4cccc(F)c4)cc3[C@@H]21", "Gaussia minus Italica difference (%)": "-7.043"}
{"compound": "CCc1csc(N2[C@@H](C#N)[C@@H](c3ccccc3-c3cccc(F)c3)[C@@H]2CO)n1", "Gaussia minus Italica difference (%)": "-6.511"}
{"compound": "COCC#Cc1ccc([C@H]2[C@@H](CO)N3CCCCN(S(=O)(=O)c4ccccc4F)C[C@@H]23)cc1", "Gaussia minus Italica difference (%)": "-13.1"}
{"compound": "COCC(=O)N1CCCCN2[C@H](C1)[C@@H](c1ccc(C#Cc3ccccc3)cc1)[C@@H]2CO", "Gaussia minus Italica difference (%)": "-10.28"}
{"compound": "CO[C@H]1CN(C)C(=O)c2cc(NC(=O)c3ccc4c(c3)OCO4)ccc2OC[C@H](C)N(CCC(F)(F)F)C[C@@H]1C", "Gaussia minus Italica difference (%)": "-10.93"}
{"compound": "C[C@H](C(=O)N(C)C[C@H]1OCc2ccccc2-c2c(n(C)c3ccccc23)C(=O)N([C@H](C)CO)C[C@H]1C)c1ccccc1", "Gaussia minus Italica difference (%)": "-4.686"}